Measurements from article PMC12357052.
No constants are given. Whether binding was seen depends on the method and setting. Binding seen in cells or lysates may run through a third protein. A yes stands for co-enrichment or nearness to the bait. Other partners may have been found.

Amino acid sequences for entries named in this document (tags omitted).
UniProt O43516: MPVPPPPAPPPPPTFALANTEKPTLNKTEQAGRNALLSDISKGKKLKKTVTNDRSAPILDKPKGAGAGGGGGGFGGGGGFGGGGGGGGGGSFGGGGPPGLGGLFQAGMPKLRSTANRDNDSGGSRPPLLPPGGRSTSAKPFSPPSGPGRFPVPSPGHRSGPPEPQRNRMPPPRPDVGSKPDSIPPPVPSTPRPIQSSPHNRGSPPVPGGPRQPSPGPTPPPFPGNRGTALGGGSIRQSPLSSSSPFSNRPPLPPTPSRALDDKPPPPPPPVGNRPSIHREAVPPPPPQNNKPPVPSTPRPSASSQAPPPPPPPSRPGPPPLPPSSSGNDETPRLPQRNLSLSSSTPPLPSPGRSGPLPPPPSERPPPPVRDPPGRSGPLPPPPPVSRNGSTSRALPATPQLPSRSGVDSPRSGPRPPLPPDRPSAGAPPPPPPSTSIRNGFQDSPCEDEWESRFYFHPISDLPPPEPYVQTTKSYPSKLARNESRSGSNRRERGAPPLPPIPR
UniProt O00401: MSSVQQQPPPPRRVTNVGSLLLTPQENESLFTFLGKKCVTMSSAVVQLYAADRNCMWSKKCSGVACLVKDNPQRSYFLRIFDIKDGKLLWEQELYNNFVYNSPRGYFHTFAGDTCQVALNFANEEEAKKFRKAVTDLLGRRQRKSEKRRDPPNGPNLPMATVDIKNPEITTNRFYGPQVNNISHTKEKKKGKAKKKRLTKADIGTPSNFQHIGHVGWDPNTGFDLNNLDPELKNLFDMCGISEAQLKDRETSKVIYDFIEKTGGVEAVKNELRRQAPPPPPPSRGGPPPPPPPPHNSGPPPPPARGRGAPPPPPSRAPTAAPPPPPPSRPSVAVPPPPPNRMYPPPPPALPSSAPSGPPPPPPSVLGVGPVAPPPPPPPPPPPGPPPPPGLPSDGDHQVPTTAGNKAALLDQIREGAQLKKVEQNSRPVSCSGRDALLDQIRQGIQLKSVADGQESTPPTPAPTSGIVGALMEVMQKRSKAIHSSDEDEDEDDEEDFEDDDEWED
UniProt O43707: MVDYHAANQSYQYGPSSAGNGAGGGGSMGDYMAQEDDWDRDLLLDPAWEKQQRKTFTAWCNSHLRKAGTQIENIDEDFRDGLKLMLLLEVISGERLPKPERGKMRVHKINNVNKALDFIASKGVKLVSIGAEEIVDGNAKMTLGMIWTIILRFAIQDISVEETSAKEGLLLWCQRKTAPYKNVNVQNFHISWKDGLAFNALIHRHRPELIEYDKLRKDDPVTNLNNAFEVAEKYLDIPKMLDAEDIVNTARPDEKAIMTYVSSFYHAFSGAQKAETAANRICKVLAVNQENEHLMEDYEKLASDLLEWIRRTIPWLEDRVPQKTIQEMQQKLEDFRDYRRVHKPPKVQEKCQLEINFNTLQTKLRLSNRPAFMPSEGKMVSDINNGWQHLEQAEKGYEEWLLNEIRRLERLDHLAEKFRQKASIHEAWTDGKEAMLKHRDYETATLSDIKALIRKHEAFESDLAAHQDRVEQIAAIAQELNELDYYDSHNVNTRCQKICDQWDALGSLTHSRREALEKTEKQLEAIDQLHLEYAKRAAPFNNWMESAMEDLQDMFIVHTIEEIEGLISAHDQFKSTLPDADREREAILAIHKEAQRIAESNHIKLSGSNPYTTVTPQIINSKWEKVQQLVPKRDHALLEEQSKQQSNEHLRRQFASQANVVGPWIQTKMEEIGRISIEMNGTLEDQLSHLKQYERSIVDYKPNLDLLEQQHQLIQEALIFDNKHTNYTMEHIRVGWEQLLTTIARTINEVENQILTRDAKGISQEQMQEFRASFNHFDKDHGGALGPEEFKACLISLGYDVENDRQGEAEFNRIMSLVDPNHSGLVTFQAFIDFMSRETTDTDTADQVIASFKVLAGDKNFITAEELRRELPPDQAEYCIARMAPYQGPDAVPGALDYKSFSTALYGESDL
UniProt Q9Y490: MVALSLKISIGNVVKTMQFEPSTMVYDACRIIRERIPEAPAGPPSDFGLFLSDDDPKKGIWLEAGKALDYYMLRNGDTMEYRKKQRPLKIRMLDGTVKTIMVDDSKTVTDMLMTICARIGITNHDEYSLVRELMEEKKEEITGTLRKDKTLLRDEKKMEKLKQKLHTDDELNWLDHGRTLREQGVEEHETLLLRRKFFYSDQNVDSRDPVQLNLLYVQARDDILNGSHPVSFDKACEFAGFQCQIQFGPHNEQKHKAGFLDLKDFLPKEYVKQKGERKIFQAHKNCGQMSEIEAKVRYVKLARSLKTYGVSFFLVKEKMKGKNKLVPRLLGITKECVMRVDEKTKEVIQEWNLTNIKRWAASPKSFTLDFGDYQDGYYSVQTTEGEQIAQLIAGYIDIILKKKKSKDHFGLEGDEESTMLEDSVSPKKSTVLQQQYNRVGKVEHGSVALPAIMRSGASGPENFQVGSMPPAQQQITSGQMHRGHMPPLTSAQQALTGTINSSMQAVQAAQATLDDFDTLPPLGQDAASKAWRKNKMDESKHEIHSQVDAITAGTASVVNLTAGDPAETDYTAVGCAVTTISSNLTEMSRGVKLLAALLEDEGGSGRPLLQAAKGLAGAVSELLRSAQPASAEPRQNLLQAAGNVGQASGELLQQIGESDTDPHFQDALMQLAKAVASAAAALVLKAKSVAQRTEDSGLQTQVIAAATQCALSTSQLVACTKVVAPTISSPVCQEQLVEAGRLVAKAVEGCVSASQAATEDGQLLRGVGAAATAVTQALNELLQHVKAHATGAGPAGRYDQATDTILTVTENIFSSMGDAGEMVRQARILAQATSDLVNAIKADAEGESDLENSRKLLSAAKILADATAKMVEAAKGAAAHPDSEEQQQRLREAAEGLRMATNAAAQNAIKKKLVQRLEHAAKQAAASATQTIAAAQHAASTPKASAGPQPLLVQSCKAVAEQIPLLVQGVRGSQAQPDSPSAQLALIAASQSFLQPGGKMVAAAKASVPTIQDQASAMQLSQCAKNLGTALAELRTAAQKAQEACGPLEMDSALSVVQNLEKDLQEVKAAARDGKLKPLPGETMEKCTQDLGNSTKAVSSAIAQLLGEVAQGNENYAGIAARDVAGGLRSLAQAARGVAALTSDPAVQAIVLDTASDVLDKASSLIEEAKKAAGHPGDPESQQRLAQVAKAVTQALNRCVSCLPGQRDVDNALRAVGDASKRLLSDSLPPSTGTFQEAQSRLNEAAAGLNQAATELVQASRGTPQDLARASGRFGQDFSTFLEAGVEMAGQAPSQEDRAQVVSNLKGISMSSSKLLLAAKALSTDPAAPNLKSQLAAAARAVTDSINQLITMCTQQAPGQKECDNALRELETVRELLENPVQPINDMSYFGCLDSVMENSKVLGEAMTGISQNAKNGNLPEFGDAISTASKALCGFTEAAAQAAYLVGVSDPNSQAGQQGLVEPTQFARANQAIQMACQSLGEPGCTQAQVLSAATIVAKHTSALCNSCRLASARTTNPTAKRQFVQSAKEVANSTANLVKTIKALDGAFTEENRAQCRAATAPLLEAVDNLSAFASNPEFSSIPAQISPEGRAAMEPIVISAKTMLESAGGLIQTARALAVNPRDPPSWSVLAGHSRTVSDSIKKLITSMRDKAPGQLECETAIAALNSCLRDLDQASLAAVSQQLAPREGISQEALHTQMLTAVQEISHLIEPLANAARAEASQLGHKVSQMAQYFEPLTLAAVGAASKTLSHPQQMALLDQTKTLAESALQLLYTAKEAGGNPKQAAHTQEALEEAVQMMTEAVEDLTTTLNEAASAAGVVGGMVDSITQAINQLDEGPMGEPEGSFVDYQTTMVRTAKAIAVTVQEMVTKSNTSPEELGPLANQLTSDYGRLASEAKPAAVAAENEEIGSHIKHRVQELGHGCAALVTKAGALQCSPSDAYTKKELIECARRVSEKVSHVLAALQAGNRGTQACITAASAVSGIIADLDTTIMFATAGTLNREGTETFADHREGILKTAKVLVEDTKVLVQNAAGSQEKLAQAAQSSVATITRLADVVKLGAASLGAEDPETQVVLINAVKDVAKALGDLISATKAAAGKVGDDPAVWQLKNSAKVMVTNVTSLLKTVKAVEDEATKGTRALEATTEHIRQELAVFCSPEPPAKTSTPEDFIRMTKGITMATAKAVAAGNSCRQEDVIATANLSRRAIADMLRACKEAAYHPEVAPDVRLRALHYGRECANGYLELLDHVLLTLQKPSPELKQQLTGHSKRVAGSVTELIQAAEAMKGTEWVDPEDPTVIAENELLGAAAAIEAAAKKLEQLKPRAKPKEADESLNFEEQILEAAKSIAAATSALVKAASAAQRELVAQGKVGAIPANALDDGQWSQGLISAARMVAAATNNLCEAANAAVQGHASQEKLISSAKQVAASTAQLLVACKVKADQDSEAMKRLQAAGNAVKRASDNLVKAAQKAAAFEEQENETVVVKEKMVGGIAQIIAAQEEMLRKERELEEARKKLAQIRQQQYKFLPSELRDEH
UniProt P12814: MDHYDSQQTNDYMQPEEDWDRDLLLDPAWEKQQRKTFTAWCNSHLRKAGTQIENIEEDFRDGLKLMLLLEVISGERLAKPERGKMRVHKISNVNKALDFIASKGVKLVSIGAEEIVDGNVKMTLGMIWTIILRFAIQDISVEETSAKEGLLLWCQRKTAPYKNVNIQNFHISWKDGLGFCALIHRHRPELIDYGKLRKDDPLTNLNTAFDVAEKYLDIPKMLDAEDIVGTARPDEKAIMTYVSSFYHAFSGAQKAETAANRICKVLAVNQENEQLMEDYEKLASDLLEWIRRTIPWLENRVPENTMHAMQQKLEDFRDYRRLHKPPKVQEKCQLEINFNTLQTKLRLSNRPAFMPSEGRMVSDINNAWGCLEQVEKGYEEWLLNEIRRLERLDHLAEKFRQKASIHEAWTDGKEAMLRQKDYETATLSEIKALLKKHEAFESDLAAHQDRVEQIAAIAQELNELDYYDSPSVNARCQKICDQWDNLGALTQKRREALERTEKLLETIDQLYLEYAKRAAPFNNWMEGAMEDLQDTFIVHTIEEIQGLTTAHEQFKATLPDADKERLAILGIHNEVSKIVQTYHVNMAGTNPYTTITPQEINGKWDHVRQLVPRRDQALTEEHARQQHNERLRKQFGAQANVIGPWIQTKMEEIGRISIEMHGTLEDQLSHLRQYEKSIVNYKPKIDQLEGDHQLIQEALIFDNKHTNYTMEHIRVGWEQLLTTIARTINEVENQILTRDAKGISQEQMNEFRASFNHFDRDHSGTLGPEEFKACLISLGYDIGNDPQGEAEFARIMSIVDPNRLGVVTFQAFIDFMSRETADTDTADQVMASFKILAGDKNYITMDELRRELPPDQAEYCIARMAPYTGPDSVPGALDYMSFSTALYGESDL

Molecular target: WAS/WASL interacting protein family member 1 (WIPF1), wild type, overexpressed (WIPF1-OE) (human) (UniProt O43516)
Test: affinity purification with mass spectrometry; Proteins immunoprecipitated with a WIPF1 antibody from WIPF1-OE HTR-8/SVneo cells; IgG immunoprecipitate as control; Easy nLC1200/Q Exactive, Mascot score >=20

Row | Substance | binding
1 | WASL (from UniProt O00401 1-505) | binds
2 | alpha-actinin 4 (ACTN4) (from UniProt O43707 1-911) | binds
3 | talin 1 (TLN1) (from UniProt Q9Y490 1-2541) | binds

Next, values leading:

Row | binding | Substance
4 | binds | ACTN1 (from UniProt P12814 1-892)
5 | binds | PLEC (from UniProt Q15149 1-4684)
